For assay [1], the target named is T1, T7-DHX34 p.Asp638Asn (human) (UniProt Q14147).
T1 sequence: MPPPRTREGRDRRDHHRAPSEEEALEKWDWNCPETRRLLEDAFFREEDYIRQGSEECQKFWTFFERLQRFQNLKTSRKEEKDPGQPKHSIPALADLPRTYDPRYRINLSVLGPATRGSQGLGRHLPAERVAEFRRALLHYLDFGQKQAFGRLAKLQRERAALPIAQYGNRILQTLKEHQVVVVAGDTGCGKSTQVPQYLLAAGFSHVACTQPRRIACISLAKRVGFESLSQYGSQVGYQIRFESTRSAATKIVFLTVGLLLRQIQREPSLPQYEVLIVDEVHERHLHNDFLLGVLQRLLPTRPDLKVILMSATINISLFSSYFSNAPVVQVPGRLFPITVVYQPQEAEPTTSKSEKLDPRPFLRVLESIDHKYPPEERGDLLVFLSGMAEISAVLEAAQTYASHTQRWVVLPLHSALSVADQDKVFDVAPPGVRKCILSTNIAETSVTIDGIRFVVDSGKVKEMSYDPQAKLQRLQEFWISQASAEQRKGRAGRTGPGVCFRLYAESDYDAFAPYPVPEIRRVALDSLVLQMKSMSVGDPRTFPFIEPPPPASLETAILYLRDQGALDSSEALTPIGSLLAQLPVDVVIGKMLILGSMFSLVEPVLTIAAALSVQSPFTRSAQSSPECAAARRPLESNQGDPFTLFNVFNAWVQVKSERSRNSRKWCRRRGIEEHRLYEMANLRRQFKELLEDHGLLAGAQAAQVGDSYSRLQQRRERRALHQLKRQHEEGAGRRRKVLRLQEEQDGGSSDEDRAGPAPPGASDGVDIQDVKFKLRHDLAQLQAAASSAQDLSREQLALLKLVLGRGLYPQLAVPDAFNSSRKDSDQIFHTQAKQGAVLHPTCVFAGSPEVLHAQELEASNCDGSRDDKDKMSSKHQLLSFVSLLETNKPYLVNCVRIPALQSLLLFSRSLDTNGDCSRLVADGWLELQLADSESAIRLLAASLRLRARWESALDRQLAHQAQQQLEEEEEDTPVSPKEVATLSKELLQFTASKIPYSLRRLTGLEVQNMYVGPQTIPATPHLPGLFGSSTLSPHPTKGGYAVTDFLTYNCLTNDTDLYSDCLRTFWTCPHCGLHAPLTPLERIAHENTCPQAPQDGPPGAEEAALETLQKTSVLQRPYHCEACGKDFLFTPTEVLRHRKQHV
In words: co-IP; HEK293T cells co-transfected with T7-DHX34 (wild type or variant) and FLAG-UPF1; anti-T7 immunoprecipitates probed for UPF1.

Assay [2] addresses T2, T7-DHX34 p.Glu444Asp (human) (UniProt Q14147).
T2 sequence: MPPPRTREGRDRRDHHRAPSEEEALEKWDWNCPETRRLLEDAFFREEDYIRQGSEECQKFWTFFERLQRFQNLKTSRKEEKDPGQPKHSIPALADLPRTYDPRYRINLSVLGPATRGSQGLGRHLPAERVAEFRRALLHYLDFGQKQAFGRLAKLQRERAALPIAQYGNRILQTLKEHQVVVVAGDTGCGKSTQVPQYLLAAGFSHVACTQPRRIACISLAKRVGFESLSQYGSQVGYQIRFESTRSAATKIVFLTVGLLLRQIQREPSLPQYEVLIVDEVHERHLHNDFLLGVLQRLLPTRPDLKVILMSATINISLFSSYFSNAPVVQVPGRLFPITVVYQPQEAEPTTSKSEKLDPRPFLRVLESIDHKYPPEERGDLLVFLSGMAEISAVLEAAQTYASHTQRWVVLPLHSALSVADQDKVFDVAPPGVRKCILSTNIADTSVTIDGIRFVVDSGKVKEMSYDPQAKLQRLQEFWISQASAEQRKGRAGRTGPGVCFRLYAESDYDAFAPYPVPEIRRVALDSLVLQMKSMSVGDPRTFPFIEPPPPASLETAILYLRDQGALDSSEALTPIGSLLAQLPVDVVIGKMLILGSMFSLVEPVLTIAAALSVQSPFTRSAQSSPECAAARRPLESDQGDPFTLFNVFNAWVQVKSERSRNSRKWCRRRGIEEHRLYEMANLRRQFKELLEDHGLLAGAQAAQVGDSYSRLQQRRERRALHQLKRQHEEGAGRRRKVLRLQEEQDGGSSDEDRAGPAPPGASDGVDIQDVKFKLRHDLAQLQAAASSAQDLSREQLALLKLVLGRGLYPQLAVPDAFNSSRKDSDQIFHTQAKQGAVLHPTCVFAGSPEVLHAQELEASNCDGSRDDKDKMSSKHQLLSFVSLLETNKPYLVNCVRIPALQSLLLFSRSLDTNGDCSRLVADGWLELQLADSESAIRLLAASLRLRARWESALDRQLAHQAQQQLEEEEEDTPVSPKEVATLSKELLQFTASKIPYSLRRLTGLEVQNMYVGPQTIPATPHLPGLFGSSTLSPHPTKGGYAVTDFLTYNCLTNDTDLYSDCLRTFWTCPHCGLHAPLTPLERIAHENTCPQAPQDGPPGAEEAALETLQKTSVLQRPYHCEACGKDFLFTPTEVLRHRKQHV
The description is as above.

Results are given in words; binding and its absence hold for the method and conditions named. Binding seen in cells or lysates may run through a third protein. Some results given as binding are weak or reduced against the parent protein; the word gives no strength. Where a sequence is shown, tags or fusion partners need not be part of it.

B1: FLAG-UPF1 (pcIneo-FLAG-UPF1) (protein, UniProt Q92900 1-1129)
chain: MSVEAYGPSSQTLTFLDTEEAELLGADTQGSEFEFTDFTLPSQTQTPPGGPGGPGGGGAGGPGGAGAGAAAGQLDAQVGPEGILQNGAVDDSVAKTSQLLAELNFEEDEEDTYYTKDLPIHACSYCGIHDPACVVYCNTSKKWFCNGRGNTSGSHIVNHLVRAKCKEVTLHKDGPLGETVLECYNCGCRNVFLLGFIPAKADSVVVLLCRQPCASQSSLKDINWDSSQWQPLIQDRCFLSWLVKIPSEQEQLRARQITAQQINKLEELWKENPSATLEDLEKPGVDEEPQHVLLRYEDAYQYQNIFGPLVKLEADYDKKLKESQTQDNITVRWDLGLNKKRIAYFTLPKTDSGNEDLVIIWLRDMRLMQGDEICLRYKGDLAPLWKGIGHVIKVPDNYGDEIAIELRSSVGAPVEVTHNFQVDFVWKSTSFDRMQSALKTFAVDETSVSGYIYHKLLGHEVEDVIIKCQLPKRFTAQGLPDLNHSQVYAVKTVLQRPLSLIQGPPGTGKTVTSATIVYHLARQGNGPVLVCAPSNIAVDQLTEKIHQTGLKVVRLCAKSREAIDSPVSFLALHNQIRNMDSMPELQKLQQLKDETGELSSADEKRYRALKRTAERELLMNADVICCTCVGAGDPRLAKMQFRSILIDESTQATEPECMVPVVLGAKQLILVGDHCQLGPVVMCKKAAKAGLSQSLFERLVVLGIRPIRLQVQYRMHPALSAFPSNIFYEGSLQNGVTAADRVKKGFDFQWPQPDKPMFFYVTQGQEEIASSGTSYLNRTEAANVEKITTKLLKAGAKPDQIGIITPYEGQRSYLVQYMQFSGSLHTKLYQEVEIASVDAFQGREKDFIILSCVRANEHQGIGFLNDPRRLNVALTRARYGVIIVGNPKALSKQPLWNHLLNYYKEQKVLVEGPLNNLRESLMQFSKPRKLVNTINPGARFMTTAMYDAREAIIPGSVYDRSSQGRPSSMYFQTHDQIGMISAGPSHVAAMNIPIPFNLVMPPMPPPGYFGQANGPAAGRGTPKGKTGRGGRQKNRFGLPGPSQTNLPNSQASQDVASQPFSQGALTQGYISMSQPSQMSQPGLSQPELSQDSYLGDEFKSQIDVALSQDSTYQGERAYQHGGVTGLSQY
B1: the binding result in assay [1] and in assay [2] was “binds” in each case.
